For one molecule, binding results are on record in PMC8414799.

By UniProt entry, the sequences of proteins in these tests, tags left out.
UniProt P26196: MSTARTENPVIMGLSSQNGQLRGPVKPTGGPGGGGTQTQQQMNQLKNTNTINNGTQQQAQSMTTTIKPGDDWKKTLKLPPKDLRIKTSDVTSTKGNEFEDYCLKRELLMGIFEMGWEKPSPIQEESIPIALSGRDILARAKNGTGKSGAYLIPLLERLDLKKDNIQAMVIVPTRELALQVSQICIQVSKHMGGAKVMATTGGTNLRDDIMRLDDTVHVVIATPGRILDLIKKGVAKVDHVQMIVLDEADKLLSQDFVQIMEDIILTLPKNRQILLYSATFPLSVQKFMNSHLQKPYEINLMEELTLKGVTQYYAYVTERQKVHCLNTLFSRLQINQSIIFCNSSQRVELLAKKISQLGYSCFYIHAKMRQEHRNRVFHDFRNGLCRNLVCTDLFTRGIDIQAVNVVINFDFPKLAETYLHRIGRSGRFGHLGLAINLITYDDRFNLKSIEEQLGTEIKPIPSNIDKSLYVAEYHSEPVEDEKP

Results are given in words; binding and its absence hold for the method and conditions named. Binding seen in cells or lysates may run through a third protein. Some binding calls cover weakened binding; strength is not graded here. Tags and fused reporters may be left off the sequences shown.

The assay deals with GFP-DDX6 (UniProt P26196). Description: co-IP; HEK-293T cells transfected with Flag-RIG-I and GFP-NC or GFP-DDX6; lysed in RIPA buffer after 36 h; lysate incubated with anti-Flag antibody at 4°C overnight, then Protein A+G agarose beads for 60 min; Western blot with antibodies to RIG-I, GFP and GAPDH (the results instead speak of an antibody specific for the GFP tag on DDX6).

B1: Flag-RIG-I (protein, UniProt O95786 1-925)
chain: MTTEQRRSLQAFQDYIRKTLDPTYILSYMAPWFREEEVQYIQAEKNNKGPMEAATLFLKFLLELQEEGWFRGFLDALDHAGYSGLYEAIESWDFKKIEKLEEYRLLLKRLQPEFKTRIIPTDIISDLSECLINQECEEILQICSTKGMMAGAEKLVECLLRSDKENWPKTLKLALEKERNKFSELWIVEKGIKDVETEDLEDKMETSDIQIFYQEDPECQNLSENSCPPSEVSDTNLYSPFKPRNYQLELALPAMKGKNTIICAPTGCGKTFVSLLICEHHLKKFPQGQKGKVVFFANQIPVYEQQKSVFSKYFERHGYRVTGISGATAENVPVEQIVENNDIIILTPQILVNNLKKGTIPSLSIFTLMIFDECHNTSKQHPYNMIMFNYLDQKLGGSSGPLPQVIGLTASVGVGDAKNTDEALDYICKLCASLDASVIATVKHNLEELEQVVYKPQKFFRKVESRISDKFKYIIAQLMRDTESLAKRICKDLENLSQIQNREFGTQKYEQWIVTVQKACMVFQMPDKDEESRICKALFLYTSHLRKYNDALIISEHARMKDALDYLKDFFSNVRAAGFDEIEQDLTQRFEEKLQELESVSRDPSNENPKLEDLCFILQEEYHLNPETITILFVKTRALVDALKNWIEGNPKLSFLKPGILTGRGKTNQNTGMTLPAQKCILDAFKASGDHNILIATSVADEGIDIAQCNLVILYEYVGNVIKMIQTRGRGRARGSKCFLLTSNAGVIEKEQINMYKEKMMNDSILRLQTWDEAVFREKILHIQTHEKFIRDSQEKPKPVPDKENKKLLCRKCKALACYTADVRVIEECHYTVLGDAFKECFVSRPHPKPKQFSSFEKRAKIFCARQNCSHDWGIHVKYKTFEIPVIKIESFVVEDIATGVQTLYSKWKDFHFEKIPFDPAEMSK
B1: the binding entry is listed as “binds”.
